Experimental data from article PMC4264864.
No constants are given. Whether binding was seen depends on the method and setting. Some entries that bind do so weakly or less than the wild type. Where a sequence is shown, tags or fusion partners need not be part of it.

Biological target: His-tagged BvgS (integral inner membrane sensor protein of the BvgA/S two-component system) (B. pertussis) (UniProt P16575)
Assay: non-reducing SDS-PAGE and Western blot of Ni-NTA-purified protein; His-BvgS purified on Ni-NTA from B. pertussis BPSH (also BPSH-KOcaps, BPSH-ΔkpsT, BPSH-ΔkpsTcom); Laemmli buffer without β-mercaptoethanol, no heat; blotted with anti-His or anti-BvgS; high MW band >260 kDa, much lower from BPSH-KOcaps and BPSH-ΔkpsT

B1: His-tagged BvgS (integral inner membrane sensor protein of the BvgA/S two-component system) (protein, UniProt P16575 33-1238)
chain: SQELTLVGKAAVPDVEVALDGDDWRWLARKRVLTLGVYAPDIPPFDVTYGERYEGLTADYMAIIAHNLGMQAKVLRYPTREQALSALESGQIDLIGTVNGTDGRQQSLRLSVPYAADHPVIVMPIGARHVPASNLAGQRLAVDINYLPKETLARAYPQATLHYFPSSEQALAAVAYGQADVFIGDALTTSHLVSQSYFNDVRVVAPAHIATGGESFGVRADNTRLLRVVNAVLEAIPPSEHRSLIYRWGLGSSISLDFAHPAYSAREQQWMADHPVVKVAVLNLFAPFTLFRTDEQFGGISAAVLQLLQLRTGLDFEIIGVDTVEELIAKLRSGEADMAGALFVNSARESFLSFSRPYVRNGMVIVTRQDPDAPVDADHLDGRTVALVRNSAAIPLLQRRYPQAKVVTADNPSEAMLMVANGQADAVVQTQISASYYVNRYFAGKLRIASALDLPPAEIALATTRGQTELMSILNKALYSISNDELASIISRWRGSDGDPRTWYAYRNEIYLLIGLGLLSALLFLSWIVYLRRQIRQRKRAERALNDQLEFMRVLIDGTPNPIYVRDKEGRMLLCNDAYLDTFGVTADAVLGKTIPEANVVGDPALAREMHEFLLTRVAAEREPRFEDRDVTLHGRTRHVYQWTIPYGDSLGELKGIIGGWIDITERAELLRKLHDAKESADAANRAKTTFLATMSHEIRTPMNAIIGMLELALLRPTDQEPDRQSIQVAYDSARSLLELIGDILDIAKIEAGKFDLAPVRTALRVLPEGAIRVFDGLARQKGIELVLKTDIVGVDDVLIDPLRMKQVLSNLVGNAIKFTTEGQVVLAVTARPDGDAAHVQFSVSDTGCGISEADQRQLFKPFSQVGGSAEAGPAPGTGLGLSISRRLVELMGGTLVMRSAPGVGTTVSVDLRLTMVEKSVQAAPPAAATAATPSKPQVSLRVLVVDDHKPNLMLLRQQLDYLGQRVIAADSGEAALALWREHAFDVVITDCNMPGISGYELARRIRAAEAAPGYGRTRCILFGFTASAQMDEAQRCRAAGMDDCLFKPIGVDALRQRLNEAVARAALPTPPSPQAAAPATDDATPTAFSAESILALTQNDEALIRQLLEEVIRTNRADVDQLQKLHQQADWPKVSDMAHRLAGGARVVDAKAMIDTVLALEKKAQGQAGPSPEIDGLVRTLAAQSAALETQLRAWLEQRPHQDQP
In the case of B1, the binding is reported as “binds”.
